Measurements reported in PubChem BioAssay AID504808 (Drosophila RNAi Screening Center, 2011)

Assay: 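Fly genes required to hold E2F transcription in check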 (primary screen)
Cells: Drosophila S2 cells
Knock-down reagent: long dsRNA against Drosophila genes
Measurement: 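Dual luciferase plate measurements; E2F-specific signal taken as firefly over Renilla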
Scale: E2F firefly: higher = more E2F reporter activity; Renilla normaliser: higher = more normaliser reporter signal
Active means: 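Called active if the normalised E2F reporter went up by over 50%; the cutoff is arbitrary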
The deposit covers about 21,000 reagents; below is a random part of those that have a named target and a result. Over the whole deposit, 18 (0.084%) are marked active. 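Raw counts without plate normalisation, one of two replicates; the ratio scores behind the calls were not deposited.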 A plus sign joins genes that one reagent is predicted to hit. The record does not give: the amount of reagent, the time to read-out.

gene	dsRNA	E2F firefly, rep 1	Renilla normaliser, rep 1	call
CG18336 (GeneID 50236)	DRSC06334	1.09e5	4511	inactive
RpL7-like + CG34164	DRSC02836	79265	4400	inactive
RpL7-like + CG34164	DRSC02837	1.05e5	4011	inactive
CG31128 (GeneID 318601)	DRSC13675	77566	2050	inactive
CG14357 (GeneID 41716)	DRSC14820	1.01e5	5070	inactive
yip7 (GeneID 38680)	DRSC11410	94278	3735	inactive
puf (GeneID 42935)	DRSC15875	74388	3736	inactive
CG7653 (GeneID 34935)	DRSC01886	98667	3775	inactive
Fgop2 (GeneID 33971)	DRSC02016	82779	3728	inactive
Ugt303A1 (GeneID 53503)	DRSC15641	1.42e5	6167	inactive
CG4714 (GeneID 36470)	DRSC06883	2869	243	inactive
CG10435 (GeneID 40948)	DRSC14246	68962	3217	inactive
Ggamma1 (GeneID 35881)	DRSC07435	2608	219	inactive
CG1640 (GeneID 32292)	DRSC19750	8916	728	inactive
CG34040 (GeneID 3885655)	DRSC03902	1.11e5	3301	inactive

The list goes on; the last 2 above are carried over.
gene	dsRNA	E2F firefly, rep 1	Renilla normaliser, rep 1	call
CG1640 (GeneID 32292)	DRSC19750	8916	728	inactive
CG34040 (GeneID 3885655)	DRSC03902	1.11e5	3301	inactive
RpL35A (GeneID 40654)	DRSC12302	71038	6044	inactive
CG15549 (GeneID 43665)	DRSC15087	1.32e5	7492	inactive
CG3345 (GeneID 33192)	DRSC00596	92459	3767	inactive
CG12551 (retired record) (GeneID 35518)	DRSC04857	1.15e5	4629	inactive
CG12551 (retired record) (GeneID 35518)	DRSC04864	1.12e5	4552	inactive
CG4328 (GeneID 39405)	DRSC10410	88319	5023	inactive
Cpes (GeneID 37782)	DRSC04475	65909	3552	inactive
FASN2 (GeneID 117361)	DRSC00167	1.33e5	5951	inactive
FASN2 (GeneID 117361)	DRSC00610	86821	3956	inactive
CG15873 (GeneID 37898)	DRSC04277	1.04e5	4908	inactive
msl-2 (GeneID 33565)	DRSC00829	85326	3666	inactive
Sry-delta (GeneID 43572)	DRSC16869	1472	824	inactive
CG17782 (GeneID 42912)	DRSC15267	95508	5778	inactive
Acox3 (GeneID 33898)	DRSC03251	1.82e5	4957	inactive
Tim10 + CG42497	DRSC04664	88764	3813	inactive
Hsp70Aa + Hsp70Bb + Hsp70Ba + 3 more	DRSC15380	94480	5023	inactive
Orc5 (GeneID 34794)	DRSC03390	99902	3811	inactive
CG11247 (GeneID 40414)	DRSC11643	65009	3023	inactive
SdhB (GeneID 35590)	DRSC05018	81241	3868	inactive
